Data as given in PubChem BioAssay AID1259425 (University of Nebraska Medical Center, 2018)
Aim: 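Find knockdowns that reproduce the gene expression pattern seen when KSR1 is lost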 (primary screen). Cells: HCT116 human colon cancer cells. Reagent: siRNA pool against human genes, 50 nM siRNA. Measured: 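After 50 nM siRNA pool, branched-DNA assay measures six marker transcripts per well, minus blank, normalised to the geometric mean of two housekeeping transcripts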. Scale: BNIP3L mRNA: higher = more BNIP3L transcript after knockdown.
In all, the deposit lists about 14,000 reagents; below is a part drawn at random. Some reagents were tested in more than one well and are listed for each. Further read-outs or replicates are left out here. No sequences are given here. The record does not give: the time to read-out.

For PPP1R16B, the entry reads BNIP3L mRNA, set 1 = 0.0612.
After knock-down of CD160, the screen gave BNIP3L mRNA, set 1 = 0.122.
MME scored BNIP3L mRNA, set 1 = 0.147.
Silencing of TAC3 resulted in: BNIP3L mRNA, set 1 = 0.0975.
Depletion of RTF2 came out at: BNIP3L mRNA, set 1 = 0.048.
Depletion of FBXL17 resulted in: BNIP3L mRNA, set 1 = 0.101.
PRKAG1 showed BNIP3L mRNA, set 1 = 0.16.
With knock-down of FKBP1A, the screen gave BNIP3L mRNA, set 1 = 0.0556.
Against CFAP69, the values are BNIP3L mRNA, set 1 = 0.124.
JOSD1 gave BNIP3L mRNA, set 1 = 0.0707.
Depletion of MRPS6 resulted in: BNIP3L mRNA, set 1 = 0.272.
With knock-down of FKRP, the screen gave BNIP3L mRNA, set 1 = 0.0757.
KCNA10 scored BNIP3L mRNA, set 1 = 0.102.
GPR82 gave BNIP3L mRNA, set 1 = 0.187.
CTSB showed BNIP3L mRNA, set 1 = 0.0814.
ZNF581 scored BNIP3L mRNA, set 1 = 0.108.
Against RANBP3, the values are BNIP3L mRNA, set 1 = 0.0794.
After knock-down of ATG101, the record shows BNIP3L mRNA, set 1 = 0.134.
For POU5F1, the values are BNIP3L mRNA, set 1 = 0.11.
ATAD2 showed BNIP3L mRNA, set 1 = 0.187.
PCDHGA4 gave BNIP3L mRNA, set 1 = 0.0702.
GPR17 gave BNIP3L mRNA, set 1 = 0.0891.
SMPD4 showed BNIP3L mRNA, set 1 = 0.168.
Against DCAF11 the deposit lists BNIP3L mRNA, set 1 = 0.195.
With knock-down of JPT1, the record shows BNIP3L mRNA, set 1 = 0.0555.
JPT1 gave BNIP3L mRNA, set 1 = 0.0522.
Against SIDT1 the deposit lists BNIP3L mRNA, set 1 = 0.133.
Knock-down of MYOZ1 gave: BNIP3L mRNA, set 1 = 0.181.

Quoted from the entries so far, 3 entries:
RANBP3 — BNIP3L mRNA, set 1: 0.0794
ATG101 — BNIP3L mRNA, set 1: 0.134
POU5F1 — BNIP3L mRNA, set 1: 0.11
